Experimental data from US8946224B2, “Substituted [1,2,4]triazolo[4,3-A]pyrazines for medicaments and pharmaceutical compositions” (Redx Pharma Limited, priority 2010, dated 2015).
Values joined by “and” are separate entries in the source; they are usually repeats but may differ in a detail not shown here. Equal entries are not always repeated.

Protein sequences, listed by entry. Tags and fused reporters are not part of them. Lines headed by an entry give the natural chain unless they say otherwise; changes in a name come on top.
UniProt P01019: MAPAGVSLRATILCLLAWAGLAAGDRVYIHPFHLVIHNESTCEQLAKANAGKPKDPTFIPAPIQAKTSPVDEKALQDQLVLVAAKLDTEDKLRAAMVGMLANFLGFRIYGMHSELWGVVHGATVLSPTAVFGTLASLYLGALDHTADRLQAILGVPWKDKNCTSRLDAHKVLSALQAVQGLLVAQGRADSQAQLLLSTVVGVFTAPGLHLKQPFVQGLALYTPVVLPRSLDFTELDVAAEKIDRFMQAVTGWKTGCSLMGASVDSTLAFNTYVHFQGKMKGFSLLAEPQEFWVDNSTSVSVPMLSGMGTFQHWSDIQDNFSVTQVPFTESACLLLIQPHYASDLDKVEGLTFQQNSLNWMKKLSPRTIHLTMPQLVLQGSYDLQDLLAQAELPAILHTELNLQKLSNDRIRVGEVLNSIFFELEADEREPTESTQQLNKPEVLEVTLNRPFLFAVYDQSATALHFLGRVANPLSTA

Tested on: PathHunter NHRPro cell lines
Experiment: PathHunter NHRPro cell assay, agonist format (Examples 90-92)
Format: cell-based
Method: Methodology for Examples 90-92 Cell Handling
PathHunter NHRPro cell lines were expanded from freezer stocks in T25 flasks according to standard procedures and maintained in selective growth media prior to assay.
Once it was established that the cells were healthy and growing normally, cells were passaged from flasks using cell dissociation reagent and seeded into white walled clear bottom 384-well microplates for compound profiling.
For profiling, cells were seeded at a density of 10000 cells per well in a total volume of 20 μL and were allowed to adhere and recover overnight prior to compound addition. Media contained charcoal-dextran filtered serum to reduce the level of hormones present.
Intermediate dilution of compound stocks were generated such that 5 μL of 5× compound could be added to each well with a final DMSO concentration of 1% of total volume.
For profiling compound in agonist mode, the cells were incubated in the presence of compound at 37° C. for 5 hours.
After appropriate compound incubation, assay signal was generated through a single addition of 15 μL (50% v/v) of PathHunter Detection reagent cocktail for agonist and antagonist assays respectively followed by one hour incubation at room temperature.
Microplates were read following signal generation with a PerkinElmer Envision™ instrument for chemiluminescent signal detection.
Dose curves in the presence and absence of compound were plotted using GraphPad Prism or Activity Base.
For the agonist mode, percentage activity was calculated using the following formula: % Activity=100%×(Mean RLU of test sample−mean RLU of vehicle control)/(mean MAX RLU control ligand−mean RLU of vehicle control).

Compound | Curve Bottom (RARβ, NHR Protein Interaction) | Curve Top (RARβ, NHR Protein Interaction) | Hill (RARβ, NHR Protein Interaction) | Curve Bottom (AVPR2, Arrestin) | Curve Top (AVPR2, Arrestin) | Hill (AVPR2, Arrestin) | Hill (AGTR1, Arrestin)
COc1ccc(-c2ccc3cc(C=O)ccc3c2)cc1C12CC3CC(CC(C3)C1)C2 [Formula 135; Z is C(O)H] | 0 | 112.4 | 1.72 |  |  |  | 
COc1ccc(-c2ccc3cc(CO)ccc3c2)cc1C12CC3CC(CC(C3)C1)C2 [Formula 135; Z is CH2OH] | 0 | 127 | 1.16 |  |  |  | 
CC1=C(/C=C/C(C)=C\C=C\C(C)=C\C(=O)O)C(C)(C)CCC1 [9 Cis Retanoic acid] | 0 | 100 and 108.3 | 0.87 and 1.21 |  |  |  | 
NC(=O)CC[C@@H]1NC(=O)[C@H](Cc2ccccc2)NC(=O)[C@H](Cc2ccc(O)cc2)NC(=O)[C@@H](N)CSSC[C@@H](C(=O)N2CCC[C@H]2C(=O)N[C@@H](CCCN=C(N)N)C(=O)NCC(N)=O)NC(=O)[C@H](CC(N)=O)NC1=O [Vasopressin] |  |  |  | −3.9 | 100.5 | 1.23 | 
COc1ccc(-c2ccc3cc(C=NO)ccc3c2)cc1C12CC3CC(CC(C3)C1)C2 [Compound 5a, 6-(3-(Adamantan-1-yl)-4-methoxyphenyl)-2-naphthaldehyde oxime] | 6.5 | 45 | 0.71 |  |  |  | 
COc1ccc(-c2ccc3cc(C(=O)O)ccc3c2)cc1C12CC3CC(CC(C3)C1)C2 [Adapalene] | 0 | 134.9 | 1.02 |  |  |  | 
CON=Cc1ccc2cc(-c3ccc(OC)c(C45CC6CC(CC(C6)C4)C5)c3)ccc2c1 [Compound 5b, 6-(3-(Adamantan-1-yl)-4-methoxyphenyl)-2-naphthaldehyde O-methyl oxime] | 5.5 | 80 | 0.79 |  |  |  | 
Angiotensin II (DRVYIHPF; Angiotensin-2; UniProt P01019 25-32, looked up) |  |  |  |  |  |  | 1.7
